Laboratory results reported in doi:10.1101/2022.08.17.504231.
These are yes or no findings as the source states them, for the method shown. In cells and extracts the contact can be indirect. Some binding calls cover weakened binding; strength is not graded here.

Chains of the proteins cited; added tags and fusions are not shown. Residues count along the entry.
UniProt P43220, residues 24-463: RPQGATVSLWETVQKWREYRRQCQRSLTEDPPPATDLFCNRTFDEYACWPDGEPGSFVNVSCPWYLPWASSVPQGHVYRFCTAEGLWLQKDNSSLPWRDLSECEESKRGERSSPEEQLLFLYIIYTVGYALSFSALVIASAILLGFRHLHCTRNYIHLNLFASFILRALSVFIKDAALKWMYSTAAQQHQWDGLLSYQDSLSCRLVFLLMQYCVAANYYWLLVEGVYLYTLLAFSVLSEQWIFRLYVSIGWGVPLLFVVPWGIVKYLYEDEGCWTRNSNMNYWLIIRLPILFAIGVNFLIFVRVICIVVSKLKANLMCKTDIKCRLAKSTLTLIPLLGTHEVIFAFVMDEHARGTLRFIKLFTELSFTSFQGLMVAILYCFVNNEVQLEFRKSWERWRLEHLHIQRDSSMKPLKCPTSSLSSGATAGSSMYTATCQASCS
UniProt P32121: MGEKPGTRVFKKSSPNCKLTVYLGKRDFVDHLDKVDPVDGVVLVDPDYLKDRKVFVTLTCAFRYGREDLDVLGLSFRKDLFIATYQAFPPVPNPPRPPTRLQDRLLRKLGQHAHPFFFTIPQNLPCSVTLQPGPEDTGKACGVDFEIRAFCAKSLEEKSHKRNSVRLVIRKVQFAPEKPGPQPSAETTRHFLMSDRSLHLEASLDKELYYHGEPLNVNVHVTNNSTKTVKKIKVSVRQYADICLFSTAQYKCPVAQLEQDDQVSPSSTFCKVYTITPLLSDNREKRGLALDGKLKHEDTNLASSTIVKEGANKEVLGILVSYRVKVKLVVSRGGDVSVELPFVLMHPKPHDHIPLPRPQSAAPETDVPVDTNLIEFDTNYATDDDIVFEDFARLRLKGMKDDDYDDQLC

Target: GLP-1R-SmBiT (UniProt P43220)
Assay: split reporter

binding: binds
Substance: LgBiT-β-arrestin 2 (from UniProt P32121 1-409)
